Results: article PMC10163288
The other results are listed elsewhere or left out.

B1: il2ra_site2_2erj_sap_17_mot_HHH_b1_02566_000000063_0001_42_58_H_._HHH_b1_03002_0002_0000200009_0000001_0_0001_af2pred_0001_1_af2pred_swapped (protein)
chain: SSSSSSSVEERVEELLERAKHIRDKREALELAQEASELADEHDDPELWEEILRVARELSSSSSSS
B2: il2ra_site1_1z92_normal_mot_HHH_b1_07828_af2_000000107_0001_18_34_H_._HHH_b1_01691_0001_0000200014_0000001_0_af2pred_0001_af2pred (protein)
chain: SSSSSSDEHERIFEEAHEFAKELNNPALEWAVEALLRRYRRSGDERLREDLEKALENLSSSSSSS
B3: il2ra_site1_3nfp_sap_17_mot_HHH_b1_01159_af2_000000107_0001_1_20_H_._HHH_b1_00510_0001_0000100012_0000001_0_0001 (protein)
chain: DEEEIRREIEELLEEDPQEAMQFAMKLAHEAMRNNDPELLRVVLEALLKVTGDPSVKKLLEVARR
B4: il2ra_site2_3nfp_sap_15_mot_HHH_b1_06577_af2_000000152_0001_20_36_H_._HHH_b1_06279_af2_0001_0000100009_0000001_1_0001 (protein)
chain: SSSSSEVEEYLEAAVALLEEALEQGDEEAARRHLELVKLAAEDAGDEEIKERLEEIEEELSSSSS
B5: il2ra_site2_2erj_normal_mot_HHH_b2_05633_000000270_0001_38_52_H_._HHH_b1_00328_0001_0000100005_0000001_0 (protein)
chain: SSSSDEEYRRVAELLAEAQELALEGNPEEAEKLLEEARQIAEEANSEALERYVEFAHRDISSSSS
B6: il2ra_site1_3nfp_normal_mot_cc4219192d8ccd35c40e7b68f9a57604_0001_af2_000000124_0001_16_32_H_._HHH_b2_07250_0001_0000300003_0000001_0_af2pred_0001_af2pred_1_swa … (protein)
chain: SSSSSALEWVEEKAEEAFENNDKFELRALYKLLREALERHGDPEAKEVLEKVEELLRELQSSSSS
B7: il2ra_site1_1z92_sap_16_mot_96c1ddac3a320f3fb7c3d0e7ac756063_0001_000000061_0001_1_12_H_._HHH_b1_02840_0001_0000300034_0000001_0_0001 (protein)
chain: SSSSSSEERSVRIVVRVLVELAGLSEEQEEELEELAKRLLEEGLSFLEISKLLDELAVRLSSSSS
B8: il2ra_site1_2b5i_normal_mot_HHH_b2_04910_000000118_0001_1_19_H_._HHH_b2_07035_af2_0001_0000200008_0000001_0_af2pred_dldesign_0_af2pred (protein)
chain: SSSSSSSAALELFLAANKAYQAGKEEEAKRLLEEALRLAREAGATSLVKMIESALKSLSSSSSSS
B9: il2ra_site2_3nfp_sap_14_mot_HHH_b1_04032_000000208_0001_43_56_H_._67c3a9dcc8d22c6e038fb00e67f47ca1_0001_af2_0001_0000100001_0000001_0_0001 (protein)
chain: SEEEQERIEELEEKLKKAVERNDKELIEEILAEIAHFVAEFSDDPEAFRLYSLAAEALLAVAQRS
B10: il2ra_site1_1z92_sap_17_mot_HHH_b1_00661_af2_000000033_0001_38_50_H_._HHH_b1_06922_af2_0001_0000200008_0000001_0_0001_af2pred_dldesign_0_af2pred (protein)
chain: SPRDEALARAAELADAPPEDLRRLLDAARRAAGGDPAAARARLTRWLTKLGVPAEAIELAAECLP
B11: il2ra_site2_2erj_normal_mot_b4a479b5f6325cf1502d73870e4e4edc_0001_000000131_0001_18_32_H_._HEEHE_0898_0001_0000100002_0000001_0_af2pred_0001_af2pred (protein)
chain: SDEEDVELLIRIHAERLGVPSVEVEVHNGELTVTFEGDTRSARRASELAEWIAKLLNIKVTIEVE
B12: il2ra_site2_3nfp_sap_22_mot_HHH_b2_04319_af2_000000252_0001_42_56_H_._HHH_b2_01596_af2_0001_0000500023_0000001_0_0001_af2pred_0001_1_af2pred_swapped (protein)
chain: SSSSSSSEEEVERLLEEAKRIEDEEEVREILLKAAQIAYELKDHELFALVLRVYEELLSSSSSSS
B13: il2ra_site1_2b5i_sap_11_mot_HHH_b2_01684_af2_000000128_0001_1_17_H_._81c47014b626a55087c6b8b4ed7fd288_0001_1_af2_0001_0000100001_0000001_0_0001_af2pred_dldesign … (protein)
chain: SSSSSSPIEEAIAEARRLAAAGRRREALETLEKAYKLAGANNDEETEEKIEELAKELSASSSSSS
B14: il2ra_site1_1z92_normal_mot_01209686ea234b34325f918445e6eade_0001_af2_000000154_0001_18_33_H_._544ef0e38e907b7890d4414ebae48784_0001_1_0001_0000200004_0000001_0 (protein)
chain: TREELIEKLAELLGVPPEAVKRDLEALERLLGDPRRAVRNFLIALRQLGKLTPEVEELLEEIART
B15: il2ra_site2_3nfp_normal_mot_HHH_b1_00660_af2_000000199_0001_40_57_H_._HHH_b2_07891_0001_0000100003_0000001_0 (protein)
chain: SSSSDEEEEVERLIERVKELIEEGNPEEARKVVARAAALAFEVNNFELFAKILELLALLASSSSS
B16: il2ra_site2_3nfp_sap_18_mot_HHH_b1_02060_af2_000000092_0001_1_15_H_._HHH_b1_04055_0001_0000900056_0000001_0_0001 (protein)
chain: SSSSDRAEEYLKLALELLELLEELGDEEALEKLLEMLELAAESNNDEEAKRLIEEVREELSSSSS
B17: il2ra_site1_2b5i_normal_mot_HHH_b2_04910_000000118_0001_1_19_H_._HHH_b1_00060_af2_0001_0000700046_0000001_0_af2pred_dldesign_0_af2pred (protein)
chain: SSSSSAEARRARELFLEAERLHQAGKEEEAKKLLEEALRLARAGKAPLLARIIELALSQLESSSS
B18: il2ra_site1_3nfp_sap_20_mot_HHH_b1_08027_af2_000000041_0001_1_17_H_._HHH_b1_02266_0001_0000200013_0000001_0_0001_af2pred_0001_af2pred (protein)
chain: SSSSSDSEEVRELLKRALEALENGNPEEARELAEEALEIAREAGSENLRKFIEVALKLINGSSSS
B19: il2ra_site1_2b5i_normal_mot_HHH_b1_07956_af2_000000065_0001_19_34_H_._ems_3hM_420_af2_0001_0000300033_0000001_0 (protein)
chain: SNVARIIKRLLEELREKAKENNNPEVEELAEEAIEILEEALRNNDVELLQEVDELYRRIDELASS
B20: il2ra_site2_3nfp_normal_mot_HHH_b1_00660_af2_000000090_0001_40_57_H_._HHH_b2_05870_0001_0000500009_0000001_0_af2pred_0001_1_af2pred_swapped (protein)
chain: SSSSSSDEVEELIRQAEELLEKGNPEEAEELLRKAAHIAYELGDHELFARIADLLAKVDSSSSSS
B21: il2ra_site2_2erj_sap_16_mot_HHH_b1_00941_000000051_0001_45_58_H_._HHH_b2_05386_0001_0000600022_0000001_0_0001 (protein)
chain: SSSSDDRLHRIFELAVRILAAWSRGNPEEARELLEELRELVEESDSENAKELVEALEKRLKSSSS
B22: il2ra_site1_1z92_normal_mot_01209686ea234b34325f918445e6eade_0001_af2_000000154_0001_18_33_H_._HHH_b2_08134_af2_0001_0000400045_0000001_0_af2pred_0001_af2pred_1 (protein)
chain: SSSSDEEEEELERFVEQLVKELGLSEEQEEVLRRLLERALEQGIDPEKIKRALERNAKILGSSSS
B23: il2ra_site2_2erj_normal_mot_HHH_b2_01275_af2_000000073_0001_23_39_H_._HHH_b2_05199_af2_0001_0000300024_0000001_0 (protein)
chain: SSSSSEELRQLYELAVILLHLLTRGDEEEFEKVLEEAKELAKELQSDTAKEILEFLEKELSSSSS
B24: il2ra_site1_1z92_sap_24_mot_HHH_b1_04917_000000121_0001_22_38_H_._HHH_b1_01483_af2_0001_0000600028_0000001_0_0001 (protein)
chain: SSSSSSEEELDQRVLELFREASKIRDQEEKERLLEEALRLAQEANSPKVEEDVERYLRLLSSSSS

Biological target: il2ra, P01589
Assay: yeast display titration

Apparent Kd, inactive:
B1 no binding seen
B2 no binding seen
B3 no binding seen
B4 no binding seen
B5 no binding seen
B6 no binding seen
B7 no binding seen
B8 no binding seen
B9 no binding seen
B10 no binding seen
B11 no binding seen
B12 no binding seen
B13 no binding seen
B14 no binding seen
B15 no binding seen
B16 no binding seen
B17 no binding seen
B18 no binding seen
B19 no binding seen
B20 no binding seen
B21 no binding seen
B22 no binding seen
B23 no binding seen
B24 no binding seen

Copied from above for reference:
Apparent Kd, inactive:
B19 no binding seen
B20 no binding seen
B21 no binding seen
B22 no binding seen
B23 no binding seen
